Data: the supplement of paper PMC12889115
The other results are listed elsewhere or left out. These are raw signals, not scaled to a control.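 In the initial screen, polymyxin B was used at a concentration that permeabilizes Salmonella's outer membrane but not its inner membrane. Maximum growth was set by DMSO wells with or without polymyxin B. Since plates varied, data were ranked per plate, and compounds giving the lowest OD600 advanced as hits.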

Test system: Salmonella enterica serovar Typhimurium SL1344
Assay: bacterial growth OD600 after 18 h with compound and polymyxin B; higher = more bacterial growth (less inhibition)
Conditions: 50 µM, Mueller-Hinton broth

Row | SMILES | bacterial growth OD600 (polymyxin B 1 µg/mL) | bacterial growth OD600 (polymyxin B 0.75 µg/mL)
1 | O=C(c1cc(COc2ccc3c(c2)OCO3)[nH]n1)N1CCN2CCCC2C1 (stereo not given) | 0.876 | –
2 | C=CCC(O)(CC=C)CNC(=O)CCC1(Cc2ccc(Cl)cc2)CCC(=O)N1 (stereo not given) | – | 0.827
3 | O=C(c1cn(Cc2ccccc2F)nn1)N1CCC(OCc2ccccn2)CC1 | 0.913 | –
4 | FC(F)(F)CCCN1CCC(C2CCN(c3ncccn3)CC2)C1 (stereo not given) | – | 0.697
5 | O=C(c1ccc(F)cc1F)N1CCCC(Nc2ccc(F)cc2)C1 (stereo not given) | 0.851 | –
6 | CN(C)C1CCN(c2ccc(-c3nc(COc4ccccc4)no3)cn2)C1 (stereo not given) | 0.902 | –
7 | CN(C)CCN1C(=O)NC(Cc2cccc(F)c2)(C2CCN(C(=O)CCC3CCCC3)CC2)C1=O (stereo not given) | – | 0.775
8 | O=C1N(Cc2cccc(F)c2F)CCCC1(O)CN1CCCOCC1 (stereo not given) | 0.914 | –
9 | COC(=O)CCNC(=O)CC(c1ccccc1)c1ccccc1F (stereo not given) | – | 0.708
10 | CCN(CC)CC(O)COc1cc(CNCc2cc(F)ccc2C)ccc1OC (stereo not given) | 1.05 | –
11 | O=C(c1cn(C2CCCCCC2)nn1)N1CCCC1c1ccc(F)cc1 (stereo not given) | 0.605 | –
12 | Cc1cccc(NC(=O)N2C[C@H]3OC(=O)N(CCc4ccc(F)cc4)[C@H]3C2)c1 | – | 0.749
13 | Cc1ccc(C(=O)N(C)C2CCCN(CCc3ccccc3)C2)cc1N1CCNC1=O (stereo not given) | 1.22 | –
14 | COCCn1cnc2cc(NC(=O)C3CCCCC3)cc(C(=O)NCc3cccc(F)c3F)c21 | – | 0.734
15 | COc1ccc(CN(C)C2CCOCC2)c(OCC(O)CN2CCCCCCC2)c1 (stereo not given) | 1.09 | –
16 | COCCN1CCN(C(=O)c2cn(Cc3ccc(Cl)cc3)nn2)CC1 | 1.11 | –
17 | C[C@@H]1CN(Cc2nnnn2CC(=O)N2CCN(C3CCCCC3)C(=O)C2)C[C@H](C)O1 | – | 0.814
18 | COCCN(Cc1cnc(S(=O)(=O)Cc2ccccc2)n1CC(C)C)C(C)C | 0.046 | –
19 | CCn1c(-c2cccc(OC)c2)nc2cc(NC(C)=O)cc(C(=O)NCCCc3ccncc3)c21 | – | 0.782
20 | CC#CC(=O)N1CCCCC1C(=O)Nc1ccc(Oc2ccccc2F)cc1 (stereo not given) | 0.188 | –

An excerpt of these results, with tabs:
Row	SMILES	bacterial growth OD600 (polymyxin B 1 µg/mL)	bacterial growth OD600 (polymyxin B 0.75 µg/mL)
13	Cc1ccc(C(=O)N(C)C2CCCN(CCc3ccccc3)C2)cc1N1CCNC1=O (stereo not given)	1.22	–
14	COCCn1cnc2cc(NC(=O)C3CCCCC3)cc(C(=O)NCc3cccc(F)c3F)c21	–	0.734
